Test results published in article PMC9072438.
No constants are given. Whether binding was seen depends on the method and setting. For some assays here: In cells and extracts the contact can be indirect. Some results given as binding are weak or reduced against the parent protein; the word gives no strength. Tags and fused reporters may be left off the sequences shown.

Amino acid sequences for entries named in this document (tags omitted). Residues count along the entry.
UniProt P27467, residues 19-352: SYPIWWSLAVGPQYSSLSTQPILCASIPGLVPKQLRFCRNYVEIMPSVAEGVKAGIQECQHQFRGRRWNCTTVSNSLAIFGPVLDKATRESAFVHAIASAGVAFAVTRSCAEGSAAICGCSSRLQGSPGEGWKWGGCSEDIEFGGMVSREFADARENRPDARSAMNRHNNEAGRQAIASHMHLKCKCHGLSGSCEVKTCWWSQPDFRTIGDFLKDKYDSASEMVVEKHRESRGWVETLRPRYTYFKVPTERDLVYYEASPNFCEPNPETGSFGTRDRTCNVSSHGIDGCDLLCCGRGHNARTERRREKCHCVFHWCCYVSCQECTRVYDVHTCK

T1: FZD6-Rluc8 / FZD6-eYFP (BRET constructs) (human) (UniProt O60353)
T1 sequence: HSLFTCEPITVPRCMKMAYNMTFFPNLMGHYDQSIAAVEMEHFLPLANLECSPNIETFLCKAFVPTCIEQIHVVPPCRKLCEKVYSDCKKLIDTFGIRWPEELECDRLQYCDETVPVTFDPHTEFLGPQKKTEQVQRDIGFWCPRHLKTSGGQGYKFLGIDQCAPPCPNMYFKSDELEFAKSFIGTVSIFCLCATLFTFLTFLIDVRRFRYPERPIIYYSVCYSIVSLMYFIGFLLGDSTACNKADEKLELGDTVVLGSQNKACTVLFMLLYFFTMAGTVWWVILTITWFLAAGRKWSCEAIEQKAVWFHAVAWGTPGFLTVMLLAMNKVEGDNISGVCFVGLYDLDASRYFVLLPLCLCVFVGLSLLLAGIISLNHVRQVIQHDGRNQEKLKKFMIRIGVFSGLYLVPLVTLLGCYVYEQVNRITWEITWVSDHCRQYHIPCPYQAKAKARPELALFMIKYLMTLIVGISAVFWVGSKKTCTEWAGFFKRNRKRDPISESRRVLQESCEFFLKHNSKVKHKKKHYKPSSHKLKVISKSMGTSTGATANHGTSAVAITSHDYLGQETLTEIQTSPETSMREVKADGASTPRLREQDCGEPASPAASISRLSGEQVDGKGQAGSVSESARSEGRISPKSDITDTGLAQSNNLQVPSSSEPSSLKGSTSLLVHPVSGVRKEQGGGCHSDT

B1: FZD6-Rluc8 / FZD6-eYFP (BRET constructs) (receptor, UniProt O60353 19-706)
chain: T1 sequence
B2: human afamin, N-terminally Target-tagged (protein, UniProt P43652 22-599)
chain: LPTQPRDIENFNSTQKFIEDNIEYITIIAFAQYVQEATFEEMEKLVKDMVEYKDRCMADKTLPECSKLPNNVLQEKICAMEGLPQKHNFSHCCSKVDAQRRLCFFYNKKSDVGFLPPFPTLDPEEKCQAYESNRESLLNHFLYEVARRNPFVFAPTLLTVAVHFEEVAKSCCEEQNKVNCLQTRAIPVTQYLKAFSSYQKHVCGALLKFGTKVVHFIYIAILSQKFPKIEFKELISLVEDVSSNYDGCCEGDVVQCIRDTSKVMNHICSKQDSISSKIKECCEKKIPERGQCIINSNKDDRPKDLSLREGKFTDSENVCQERDADPDTFFAKFTFEYSRRHPDLSIPELLRIVQIYKDLLRNCCNTENPPGCYRYAEDKFNETTEKSLKMVQQECKHFQNLGKDGLKYHYLIRLTKIAPQLSTEELVSLGEKMVTAFTTCCTLSEEFACVDNLADLVFGELCGVNENRTINPAVDHCCKTNFAFRRPCFESLKADKTYVPPPFSQDLFTFHADMCQSQNEELQRKTDRFLVNLVKLKHELTDEELQSLFTNFANVVDKCCKAESPEVCFNEESPKIGN

Tests used:
[1] = target: T1, FZD6-Rluc8 / FZD6-eYFP (BRET constructs) (human); assay: FRET or BRET; BRET of FZD-Rluc8 with FZD-eYFP (1:5) in living dFZD1-10-/- HEK293T cells, homo-oligomerisation; basal and ligand-induced ΔBRET with WNT3A/afamin 400 ng/ml (against afamin) or WNT5A 500 ng/ml
[2] = target: mouse WNT3A, N-terminally PA-tagged (mouse) (UniProt P27467); assay: co-purification (anti-PA tag NZ-1 antibody column); PA-tagged WNT3A and Target-tagged afamin co-expressed in a stable Expi293F line that secretes the complex; complex purified by the PA tag of WNT3A; dialysed against PBS pH 7.0

Binder	binding [1]	binding [2]
B1	binds	–
B2	–	binds
